# Measurements from PubChem BioAssay AID445 (National Center for Advancing Translational Sciences (NCATS), 2006).
# The other results are listed elsewhere or left out. Shown are side measurements of this screen, not its main read-out; they come without a call. Most of these compounds were active or inconclusive in the main read-out, so they are no random draw. Potencies come from curve fits of mixed quality, noted in brackets.
# Assay: IkB Signaling
# Conditions: ABC-DLBCL IkBa-CBG/CBR dual luciferase ratio (green luciferase fused to IkBa over red control in OCI-Ly3 lymphoma cells), 4 h
# Outline: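 Curves were fitted separately to fusion (green), unfused (red) and ratio luminescence, then classed by r2, magnitude and activity. Cells: OCI-Ly3, 4 h compound plus doxycycline at 37C; 10 uM MG-132 defined full response.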
# [1] = measured here: control luc red channel unless noted
# [2] = measured here: IkB-luc green channel
# [3] = measured here: control luc red channel
structure (smiles),measurement,setting,value
Cc1cc(=O)n2nc(N3CCC(C(=O)Nc4ccc(C(C)C)cc4)CC3)sc2n1,AC50,[1],"10 µM [falling, partial curve]"
Cc1nnc(Sc2nc(Sc3nnc(C)s3)nc(N3CCN(C)CC3)n2)s1,AC50,[2],"3.16 µM [rising, full curve]"
same,AC50,[3],"12.6 µM [falling, partial curve]"
COc1cccc(CNC(=O)CCS(=O)(=O)c2cc3c(cc2C)NC(=O)CO3)c1,AC50,[1],"15.8 µM [falling, partial curve]"
CN(C)c1ccc(CNC(=O)CCCN2C(=O)CCn3nc(-c4cccn4C)cc32)cc1,AC50,[1],"15.8 µM [falling, partial curve]"
COc1cc(-c2nc3sccn3c2Nc2cccc(C)c2)ccc1O,AC50,[1],"25.1 µM [falling, single point]"
Oc1ccccc1-c1nc(/C=C/c2ccccc2Cl)no1,AC50,[1],"0.0398 µM [falling, full curve]"
COc1ccccc1OCCCn1c(C2CC(=O)N(c3ccccc3Cl)C2)nc2ccccc21 (stereo not given),AC50,[1],"15.8 µM [falling, partial curve]"
COc1ccccc1C(=O)N1CCN(c2cccc(Cl)c2)CC1,AC50,[1],"3.16 µM [rising, partial curve]"
COc1ccc(N2C(=O)CCSC23C(=O)N(Cc2ccc(F)cc2)c2ccccc23)cc1Cl (stereo not given),AC50,[1],"25.1 µM [falling, single point]"
CCc1ccccc1NC(=O)Cn1c(=O)ccc2cc(S(=O)(=O)N3CCC(C)CC3)ccc21,AC50,[1],"31.6 µM [falling, partial curve]"
Cc1cccc(N2CCN(S(=O)(=O)c3c(C)nc4scc(C)n4c3=O)CC2C)c1 (stereo not given),AC50,[1],"20 µM [falling, partial curve]"
CC1CCN(C(=O)c2ccc(NC(=O)c3nsc4ccccc34)cc2)CC1,AC50,[1],"0.398 µM [falling, full curve]"
CCOC(=O)c1sc(NC(=O)c2nc3nc(C)cc(C(F)F)n3n2)c(C(=O)OC)c1C,AC50,[1],"5.01 µM [falling, partial curve]"
Cn1nc(C(=O)Nc2ccccc2C#N)c2c1-c1ccccc1SC2,AC50,[1],"39.8 µM [falling, single point]"
C[C@@H]1C[C@@H]2[C@H]3CCC4=CC(=O)C=C[C@]4(C)[C@]3(F)[C@@H](O)C[C@@]2(C)[C@@]1(O)C(=O)CO,AC50,[2],"0.00398 µM [rising, full curve]"
same,AC50,[3],"0.000794 µM [rising, full curve, poor fit]"
COc1cccc(-c2cc(C(=O)Nc3cccnc3Cl)no2)c1,AC50,[1],"20 µM [falling, partial curve]"
COc1ccc(-c2nc3ccc(C(=O)NCc4ccc(C)cc4)cc3nc2-c2ccc(OC)cc2)cc1,AC50,[1],"5.01 µM [falling, full curve, poor fit]"
COc1ccc(Cl)cc1-n1c(CCC(=O)O)ccc1-c1ccc(C)cc1,AC50,[1],"15.8 µM [falling, partial curve]"
COc1ccc(Br)cc1CNC(=O)CCSCc1ccc(Cl)cc1,AC50,[1],"25.1 µM [falling, single point]"
Cc1ccc(OCCn2c(COc3ccc(Cl)cc3)nc3ccccc32)cc1,AC50,[1],"1.58 µM [falling, partial curve]"
COc1ccc(-c2noc(-c3ccccc3C(=O)NCc3ccco3)n2)cc1OC,AC50,[1],"10 µM [falling, partial curve]"
c1ccc(Cn2nnnc2C(c2cccs2)N2CCc3ccccc3C2)cc1 (stereo not given),AC50,[1],"20 µM [falling, partial curve]"
CC(C)Cn1c(SCc2cccc(F)c2)nc2ccsc2c1=O,AC50,[1],"39.8 µM [falling, single point]"
CCOc1ccc(CNC(=O)c2cccc(Nc3nc4ccccc4n4nnnc34)c2)cc1OC,AC50,[2],"25.1 µM [rising, single point]"
same,AC50,[3],"3.16 µM [falling, partial curve]"
CSc1nc(N)nc(SCC(=O)c2ccccc2)c1C#N,AC50,[1],"12.6 µM [falling, partial curve]"
CC(=O)c1cc2c(cc1N/C(=N/S(=O)(=O)c1ccc(C)cc1)c1ccc(Cl)cc1)OCO2,AC50,[1],"0.794 µM [rising, full curve]"
COc1ccc(-c2cn3c(n2)sc2cc(C(=O)NCc4ccccc4)ccc23)cc1,AC50,[1],"31.6 µM [falling, single point]"
Cc1ccc(CNc2c(C)c(C)nc3nncn23)cc1,AC50,[1],"15.8 µM [falling, partial curve]"
COc1ccc(OC)c(C2CC(=O)Nc3ccc4ccccc4c32)c1 (stereo not given),AC50,[1],"39.8 µM [falling, single point]"
CC1Cc2cc(S(=O)(=O)CCC(=O)Nc3ccc(OC(F)(F)F)cc3)ccc2N1C(=O)C1CC1 (stereo not given),AC50,[1],"3.16 µM [falling, full curve]"
CCN(C(=O)CCS(=O)(=O)c1cc(Br)cc2c1N(C(=O)C1CC1)CC2)c1cccc(C)c1,AC50,[1],"20 µM [falling, partial curve]"
COc1ccc(Cc2nc3ccc(C(=O)NCCc4ccc(Cl)cc4)cc3o2)cc1,AC50,[1],"3.16 µM [falling, partial curve]"
Cc1ccc(C)c(C(=O)N2CCC(c3nc4c(nnn4Cc4ccccc4)c(=O)[nH]3)CC2)c1,AC50,[1],"31.6 µM [falling, single point]"
CCOCCCn1c(SCC(=O)Nc2ccccc2OC)nc2c(oc3ccccc32)c1=O,AC50,[1],"31.6 µM [falling, partial curve]"
CCOc1ccccc1N1CC(c2nc3ccccc3n2CCCCOc2ccccc2)CC1=O (stereo not given),AC50,[1],"15.8 µM [falling, partial curve]"
CCOc1ccc(Nc2oc(/C=C/c3cc(OC)c(OC)c(OC)c3)nc2C#N)cc1,AC50,[1],"5.01 µM [falling, single point]"
CN(C)CCC(=O)c1ccc(Cl)cc1,AC50,[1],"25.1 µM [falling, partial curve]"
COc1ccc(NC(=O)CN(C)S(=O)(=O)c2cnc[nH]2)cc1,AC50,[1],"0.631 µM [falling, partial curve]"
CCOc1ccc(NC(=O)CSc2nc3ccccc3c(=O)n2CCC(=O)NC2CCCCC2)cc1,AC50,[1],"5.01 µM [rising, partial curve]"
COc1cc(C(=O)NCCSc2c(C)[nH]c3ccccc23)cc(OC)c1OC,AC50,[1],"10 µM [falling, partial curve]"
COc1ccc(-c2noc(C3CC(=O)N(c4ccc5c(c4)OCCO5)C3)n2)c(OC)c1 (stereo not given),AC50,[1],"12.6 µM [falling, partial curve]"
O=C1CC(N2CCN(c3nc4ccccc4s3)CC2)C(=O)N1Cc1cccs1 (stereo not given),AC50,[1],"7.94 µM [falling, partial curve]"
CCc1ccccc1NC(=O)[C@H](Cc1ccccc1)N1Cc2ccccc2C1=O,AC50,[1],"20 µM [falling, partial curve]"
O=C(COc1ccc(Cl)cc1)Nc1nnc(-c2ccc3c(c2)CCCC3)o1,AC50,[1],"6.31 µM [rising, single point] [measured here: IkB-luc green channel]"
COc1ccc(NC(=O)N2CCc3c(sc4c3CCCC4)C2c2ccc(F)cc2)cc1 (stereo not given),AC50,[1],"3.98 µM [falling, full curve]"
CCn1c(=O)c2cc(C(=O)N(C)c3cc(C)ccc3C)sc2c2ccccc21,AC50,[1],"25.1 µM [falling, single point]"
CC(C)c1ccc(Nc2nc3ccc(C(=O)c4ccccc4)cc3n3cnnc23)cc1,AC50,[1],"0.000631 µM [rising, full curve]"
Cc1ccc(NC(=O)Nc2nnc(N3CCCCC3)s2)c(C)c1,AC50,[1],"15.8 µM [falling, single point]"
CCOC(=O)C1CCN(C(=O)COc2ccc(Br)cc2)CC1,AC50,[1],"0.631 µM [falling, full curve]"
CCc1ccc(CNC(=O)c2cc3c(=O)oc4ccc(C)cc4c3s2)cc1,AC50,[1],"31.6 µM [rising, partial curve]"
COc1ccc(NC(=O)c2ccc3snnc3c2)cc1OC,AC50,[1],"0.0316 µM [rising, full curve]"
CCOc1ccc(-n2c(=O)c3c4c(sc3n(Cc3cccc(Cl)c3)c2=O)CCCC4)cc1,AC50,[1],"3.98 µM [falling, partial curve]"
O=C(NCC(c1ccc2c(c1)OCO2)N1CCOCC1)c1ccc(F)cc1 (stereo not given),AC50,[1],"5.01 µM [rising, full curve]"
CCCCN1CC(c2nc3ccccc3n2CCCCOc2c(C)cccc2C)CC1=O (stereo not given),AC50,[1],"0.1 µM [falling, full curve]"
CCOc1ccc(Sc2cc(C(=O)NCCc3ccc(OC)c(OC)c3)c3ccccc3n2)cc1,AC50,[1],"0.00631 µM [falling, full curve, poor fit]"
COc1ccc(C)cc1NC(=O)CN1CCN(c2ccc(F)cc2)CC1,AC50,[1],"20 µM [falling, partial curve]"
CCn1c(=NC(=O)CSC(C)=O)sc2cc(F)ccc21,AC50,[1],"12.6 µM [falling, partial curve]"
COc1ccc(-c2nn(-c3ccccc3)cc2C(=O)Nc2ccccc2OC)cc1,AC50,[1],"15.8 µM [falling, partial curve]"
O=C1c2[nH]nc(-c3ccccc3O)c2C(c2cccc(Cl)c2)N1CC1CCCO1 (stereo not given),AC50,[1],"20 µM [falling, partial curve]"
Cc1cccc(C(=O)Nc2ccccc2-c2nc(-c3ccccc3)no2)c1,AC50,[1],"2 µM [rising, full curve]"
O=c1c2oc3ccccc3c2n(Cc2ccccc2F)c(=O)n1Cc1ccco1,AC50,[1],"1 µM [rising, full curve, poor fit]"
Cc1c(CNCCCc2ccccc2)c(C(=O)O)c(C)n1Cc1ccc(Cl)cc1,AC50,[1],"15.8 µM [falling, partial curve]"
Cc1ccc(Cn2cc(CCC(=O)NC3CCCCC3)c3ccccc32)cc1,AC50,[1],"7.94 µM [falling, partial curve]"
Cc1cc(-n2c(C)cc(C(=O)CSc3ccc4c(c3)OCCO4)c2C)no1,AC50,[1],"25.1 µM [falling, partial curve]"
CCCCCSc1nnc2c(n1)OC(c1ccc(C)s1)N(C(C)=O)c1ccccc1-2 (stereo not given),AC50,[1],"31.6 µM [falling, partial curve]"
Cc1c(Cl)cccc1N1CC(c2nc3ccccc3n2Cc2ccccc2F)CC1=O (stereo not given),AC50,[1],"39.8 µM [falling, single point]"
Oc1ccccc1-c1nc(/C=C/c2ccc(F)cc2)no1,AC50,[1],"0.0398 µM [falling, full curve]"

# A portion from further up:
structure (smiles),measurement,setting,value
Cc1nnc(Sc2nc(Sc3nnc(C)s3)nc(N3CCN(C)CC3)n2)s1,AC50,[3],"12.6 µM [falling, partial curve]"
COc1cccc(CNC(=O)CCS(=O)(=O)c2cc3c(cc2C)NC(=O)CO3)c1,AC50,[1],"15.8 µM [falling, partial curve]"
CN(C)c1ccc(CNC(=O)CCCN2C(=O)CCn3nc(-c4cccn4C)cc32)cc1,AC50,[1],"15.8 µM [falling, partial curve]"
COc1cc(-c2nc3sccn3c2Nc2cccc(C)c2)ccc1O,AC50,[1],"25.1 µM [falling, single point]"
Oc1ccccc1-c1nc(/C=C/c2ccccc2Cl)no1,AC50,[1],"0.0398 µM [falling, full curve]"
COc1ccccc1OCCCn1c(C2CC(=O)N(c3ccccc3Cl)C2)nc2ccccc21 (stereo not given),AC50,[1],"15.8 µM [falling, partial curve]"
COc1ccccc1C(=O)N1CCN(c2cccc(Cl)c2)CC1,AC50,[1],"3.16 µM [rising, partial curve]"
COc1ccc(N2C(=O)CCSC23C(=O)N(Cc2ccc(F)cc2)c2ccccc23)cc1Cl (stereo not given),AC50,[1],"25.1 µM [falling, single point]"
CCc1ccccc1NC(=O)Cn1c(=O)ccc2cc(S(=O)(=O)N3CCC(C)CC3)ccc21,AC50,[1],"31.6 µM [falling, partial curve]"
Cc1cccc(N2CCN(S(=O)(=O)c3c(C)nc4scc(C)n4c3=O)CC2C)c1 (stereo not given),AC50,[1],"20 µM [falling, partial curve]"
CC1CCN(C(=O)c2ccc(NC(=O)c3nsc4ccccc34)cc2)CC1,AC50,[1],"0.398 µM [falling, full curve]"
CCOC(=O)c1sc(NC(=O)c2nc3nc(C)cc(C(F)F)n3n2)c(C(=O)OC)c1C,AC50,[1],"5.01 µM [falling, partial curve]"
